From paper PMC9352699 come the findings set out here.

Amino acid sequences for entries named in this document (tags omitted).
UniProt O09106: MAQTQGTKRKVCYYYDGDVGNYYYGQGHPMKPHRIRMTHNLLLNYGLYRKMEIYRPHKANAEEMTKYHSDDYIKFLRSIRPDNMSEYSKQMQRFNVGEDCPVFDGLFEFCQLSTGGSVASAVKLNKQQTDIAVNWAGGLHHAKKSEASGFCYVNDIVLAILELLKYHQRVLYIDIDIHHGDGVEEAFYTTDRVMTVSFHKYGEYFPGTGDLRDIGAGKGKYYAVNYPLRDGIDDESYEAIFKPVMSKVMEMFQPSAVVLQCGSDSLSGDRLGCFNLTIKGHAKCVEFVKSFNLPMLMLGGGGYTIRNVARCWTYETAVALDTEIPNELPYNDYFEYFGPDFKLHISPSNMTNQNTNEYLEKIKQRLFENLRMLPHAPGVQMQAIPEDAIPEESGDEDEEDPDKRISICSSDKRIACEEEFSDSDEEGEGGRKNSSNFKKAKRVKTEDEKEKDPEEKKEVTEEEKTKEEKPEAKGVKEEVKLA
UniProt Q99J95: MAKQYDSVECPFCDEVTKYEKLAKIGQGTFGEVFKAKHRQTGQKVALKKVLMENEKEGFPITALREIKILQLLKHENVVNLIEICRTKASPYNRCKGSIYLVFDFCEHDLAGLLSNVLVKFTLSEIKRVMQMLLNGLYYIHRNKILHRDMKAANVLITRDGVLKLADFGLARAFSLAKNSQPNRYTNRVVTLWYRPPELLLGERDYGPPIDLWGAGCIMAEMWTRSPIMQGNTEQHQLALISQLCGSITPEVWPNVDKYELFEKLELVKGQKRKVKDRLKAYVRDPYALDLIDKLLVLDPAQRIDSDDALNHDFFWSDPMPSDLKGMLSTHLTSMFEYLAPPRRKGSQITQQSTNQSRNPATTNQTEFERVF
UniProt Q8C3P7: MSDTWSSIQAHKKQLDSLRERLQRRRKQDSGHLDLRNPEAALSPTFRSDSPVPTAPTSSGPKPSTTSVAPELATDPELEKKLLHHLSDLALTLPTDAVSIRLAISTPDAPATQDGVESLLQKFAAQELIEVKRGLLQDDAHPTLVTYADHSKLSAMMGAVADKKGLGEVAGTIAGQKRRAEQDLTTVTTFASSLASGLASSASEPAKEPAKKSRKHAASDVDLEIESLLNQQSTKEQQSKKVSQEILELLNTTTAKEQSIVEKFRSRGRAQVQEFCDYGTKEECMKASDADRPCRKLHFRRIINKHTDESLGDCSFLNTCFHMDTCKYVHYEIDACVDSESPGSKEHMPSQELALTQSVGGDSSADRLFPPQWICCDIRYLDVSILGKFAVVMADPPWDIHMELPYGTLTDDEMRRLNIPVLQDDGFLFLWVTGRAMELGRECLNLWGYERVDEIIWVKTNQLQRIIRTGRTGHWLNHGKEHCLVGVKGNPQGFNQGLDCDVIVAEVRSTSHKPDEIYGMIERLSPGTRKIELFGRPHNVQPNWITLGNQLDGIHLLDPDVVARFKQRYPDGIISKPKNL

No constants are given. Whether binding was seen depends on the method and setting. In cells and extracts the contact can be indirect. Some binding calls cover weakened binding; strength is not graded here. Sequences can lack the tags named with a protein.

The target in experiment [1] is T1, FLAG-WTAP (Wilms' tumor 1-associating protein), expressed in HEK293T cells (UniProt Q9ER69).
T1 sequence: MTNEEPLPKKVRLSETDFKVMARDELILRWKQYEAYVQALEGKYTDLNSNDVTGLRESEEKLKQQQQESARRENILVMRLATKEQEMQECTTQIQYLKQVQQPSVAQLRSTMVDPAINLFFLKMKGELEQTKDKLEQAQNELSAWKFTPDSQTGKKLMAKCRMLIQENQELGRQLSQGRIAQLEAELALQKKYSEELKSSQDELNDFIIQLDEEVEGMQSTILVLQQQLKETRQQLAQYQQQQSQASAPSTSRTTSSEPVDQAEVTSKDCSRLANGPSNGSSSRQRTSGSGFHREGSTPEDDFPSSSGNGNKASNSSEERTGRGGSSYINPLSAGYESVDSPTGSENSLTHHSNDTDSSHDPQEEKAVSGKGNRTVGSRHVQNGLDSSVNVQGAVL
The experiment can be described thus: co-IP; HEK293T cells co-transfected with HA-HDAC1 with or without FLAG-WTAP for 48 h; RIPA lysates incubated with DNase1 (200U/ml) at 37 °C for 30 min; immunoprecipitated with FLAG or HA beads at 4 °C for 2 hours; blotted with anti-HA or anti-FLAG.

The target of experiment [2] is T2, FLAG-WTAP, expressed from adenovirus (Ad-FLAG-WTAP) in primary mouse hepatocytes (UniProt Q9ER69).
T2 sequence: T1 sequence
The experiment can be described thus: co-IP; primary hepatocytes infected with Ad-βGal or Ad-FLAG-WTAP adenovirus; total cell lysates immunoprecipitated with FLAG beads; blotted for endogenous proteins.

Experiment [3] has as its target T1, FLAG-WTAP (Wilms' tumor 1-associating protein), expressed in HEK293T cells. The experiment can be described thus: co-IP; HEK293T cells co-transfected with MYC-CDK9 with or without FLAG-WTAP; total cell lysates immunoprecipitated with FLAG beads; blotted with anti-MYC or anti-FLAG.

“HA-HDAC1, expressed in HEK293T cells (from UniProt O09106 1-482) (enzyme)”: in experiment [1], the binding result is “binds”.

In the case of “HDAC1, endogenous in primary mouse hepatocytes (from UniProt O09106 1-482) (enzyme)”, the binding entry in experiment [2] was “binds”.

Regarding “MYC-CDK9, expressed in HEK293T cells (from UniProt Q99J95 1-372) (enzyme)”, in experiment [3], the binding result is “binds”.

For the substance “METTL3, endogenous in primary mouse hepatocytes (from UniProt Q8C3P7 1-580) (enzyme)”, in experiment [2], the binding entry is “binds”.
